Reference: the supplement of paper PMC10849652
The other results are listed elsewhere or left out. Residues, ends and D or L forms follow the SMILES beside them. *: point of attachment. Cbz = O=C(OCc1ccccc1)*

By UniProt entry, the sequences of proteins in these tests, tags left out. Where a name states a change or a piece, a line headed by the entry shows the natural chain unless it says otherwise.
UniProt Q9P031: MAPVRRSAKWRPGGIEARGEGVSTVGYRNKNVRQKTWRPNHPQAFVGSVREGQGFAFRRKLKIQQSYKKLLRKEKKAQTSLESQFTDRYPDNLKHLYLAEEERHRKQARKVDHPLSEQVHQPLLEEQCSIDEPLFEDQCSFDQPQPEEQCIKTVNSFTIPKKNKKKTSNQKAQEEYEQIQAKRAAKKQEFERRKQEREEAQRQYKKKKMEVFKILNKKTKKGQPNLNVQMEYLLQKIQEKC
UniProt Q8IX12: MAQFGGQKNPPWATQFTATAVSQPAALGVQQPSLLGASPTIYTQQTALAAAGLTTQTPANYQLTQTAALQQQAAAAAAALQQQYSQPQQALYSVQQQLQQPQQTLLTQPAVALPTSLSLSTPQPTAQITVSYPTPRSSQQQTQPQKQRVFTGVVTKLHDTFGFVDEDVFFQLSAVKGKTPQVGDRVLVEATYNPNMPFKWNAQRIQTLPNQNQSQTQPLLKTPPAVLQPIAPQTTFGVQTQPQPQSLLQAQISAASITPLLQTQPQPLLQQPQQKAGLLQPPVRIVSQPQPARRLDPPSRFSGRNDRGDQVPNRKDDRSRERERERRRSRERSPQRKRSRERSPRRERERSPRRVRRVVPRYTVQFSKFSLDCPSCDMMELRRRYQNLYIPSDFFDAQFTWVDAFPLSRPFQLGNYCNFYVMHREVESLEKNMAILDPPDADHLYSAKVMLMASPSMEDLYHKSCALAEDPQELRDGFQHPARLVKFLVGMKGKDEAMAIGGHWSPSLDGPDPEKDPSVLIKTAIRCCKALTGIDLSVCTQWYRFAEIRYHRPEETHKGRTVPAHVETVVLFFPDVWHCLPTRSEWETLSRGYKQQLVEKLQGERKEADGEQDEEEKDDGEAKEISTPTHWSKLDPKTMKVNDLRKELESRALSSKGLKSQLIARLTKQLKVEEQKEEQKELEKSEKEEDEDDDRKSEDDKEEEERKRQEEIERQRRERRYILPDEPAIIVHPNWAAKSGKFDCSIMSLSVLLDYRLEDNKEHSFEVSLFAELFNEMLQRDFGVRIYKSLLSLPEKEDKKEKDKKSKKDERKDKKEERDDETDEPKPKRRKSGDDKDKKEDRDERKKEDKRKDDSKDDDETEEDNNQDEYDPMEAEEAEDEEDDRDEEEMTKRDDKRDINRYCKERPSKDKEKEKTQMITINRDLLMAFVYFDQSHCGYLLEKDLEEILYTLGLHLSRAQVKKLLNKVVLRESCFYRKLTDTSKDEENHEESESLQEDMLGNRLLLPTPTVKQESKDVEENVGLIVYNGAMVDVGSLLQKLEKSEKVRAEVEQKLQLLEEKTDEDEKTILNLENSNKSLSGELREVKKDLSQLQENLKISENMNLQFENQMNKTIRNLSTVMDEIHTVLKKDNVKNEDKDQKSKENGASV
UniProt O75909: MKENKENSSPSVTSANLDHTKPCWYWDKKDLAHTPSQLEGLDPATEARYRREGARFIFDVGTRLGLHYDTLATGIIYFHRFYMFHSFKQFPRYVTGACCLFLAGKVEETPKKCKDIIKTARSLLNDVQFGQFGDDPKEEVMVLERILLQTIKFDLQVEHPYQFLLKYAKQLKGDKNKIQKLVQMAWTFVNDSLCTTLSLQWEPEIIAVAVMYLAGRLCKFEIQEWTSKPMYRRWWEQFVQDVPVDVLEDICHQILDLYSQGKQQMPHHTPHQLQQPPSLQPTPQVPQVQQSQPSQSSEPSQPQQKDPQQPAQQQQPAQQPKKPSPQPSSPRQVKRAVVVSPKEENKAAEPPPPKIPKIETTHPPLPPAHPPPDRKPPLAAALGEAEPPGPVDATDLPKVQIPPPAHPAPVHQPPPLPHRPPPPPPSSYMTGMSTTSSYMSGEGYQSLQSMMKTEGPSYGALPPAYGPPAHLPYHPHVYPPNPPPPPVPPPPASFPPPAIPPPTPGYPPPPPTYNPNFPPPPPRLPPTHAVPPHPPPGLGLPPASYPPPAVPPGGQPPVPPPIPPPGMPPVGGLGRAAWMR
UniProt O95400: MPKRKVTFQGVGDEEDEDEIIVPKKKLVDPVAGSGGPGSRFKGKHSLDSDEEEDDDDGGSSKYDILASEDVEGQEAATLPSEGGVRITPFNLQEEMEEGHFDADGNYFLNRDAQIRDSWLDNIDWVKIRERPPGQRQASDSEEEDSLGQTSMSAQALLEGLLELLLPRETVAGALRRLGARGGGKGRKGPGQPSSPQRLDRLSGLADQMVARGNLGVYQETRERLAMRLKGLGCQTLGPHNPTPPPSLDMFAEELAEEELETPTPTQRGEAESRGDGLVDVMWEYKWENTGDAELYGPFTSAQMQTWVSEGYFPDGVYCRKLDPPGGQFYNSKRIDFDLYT
UniProt Q8TCZ2: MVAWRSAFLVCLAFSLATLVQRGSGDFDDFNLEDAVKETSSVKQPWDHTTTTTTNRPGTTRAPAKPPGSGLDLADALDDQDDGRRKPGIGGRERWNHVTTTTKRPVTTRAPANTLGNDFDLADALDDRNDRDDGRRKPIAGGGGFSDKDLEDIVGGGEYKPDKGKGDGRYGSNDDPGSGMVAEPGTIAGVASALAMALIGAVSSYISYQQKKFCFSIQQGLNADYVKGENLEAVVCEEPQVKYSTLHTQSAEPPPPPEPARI
UniProt Q92851: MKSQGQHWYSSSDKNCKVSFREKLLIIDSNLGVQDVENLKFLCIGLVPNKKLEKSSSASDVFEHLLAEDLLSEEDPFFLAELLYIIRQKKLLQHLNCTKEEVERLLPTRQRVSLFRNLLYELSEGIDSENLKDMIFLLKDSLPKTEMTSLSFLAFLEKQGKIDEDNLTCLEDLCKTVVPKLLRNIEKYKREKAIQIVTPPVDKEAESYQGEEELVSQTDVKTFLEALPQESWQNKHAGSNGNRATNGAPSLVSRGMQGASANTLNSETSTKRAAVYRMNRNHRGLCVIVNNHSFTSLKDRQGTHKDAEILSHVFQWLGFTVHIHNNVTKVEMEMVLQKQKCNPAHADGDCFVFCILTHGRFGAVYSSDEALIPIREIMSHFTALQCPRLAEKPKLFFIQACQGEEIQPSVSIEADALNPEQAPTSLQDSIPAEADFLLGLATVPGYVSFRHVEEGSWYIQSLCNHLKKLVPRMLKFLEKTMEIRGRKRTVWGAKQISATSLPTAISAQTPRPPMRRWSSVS
UniProt Q8IWY9: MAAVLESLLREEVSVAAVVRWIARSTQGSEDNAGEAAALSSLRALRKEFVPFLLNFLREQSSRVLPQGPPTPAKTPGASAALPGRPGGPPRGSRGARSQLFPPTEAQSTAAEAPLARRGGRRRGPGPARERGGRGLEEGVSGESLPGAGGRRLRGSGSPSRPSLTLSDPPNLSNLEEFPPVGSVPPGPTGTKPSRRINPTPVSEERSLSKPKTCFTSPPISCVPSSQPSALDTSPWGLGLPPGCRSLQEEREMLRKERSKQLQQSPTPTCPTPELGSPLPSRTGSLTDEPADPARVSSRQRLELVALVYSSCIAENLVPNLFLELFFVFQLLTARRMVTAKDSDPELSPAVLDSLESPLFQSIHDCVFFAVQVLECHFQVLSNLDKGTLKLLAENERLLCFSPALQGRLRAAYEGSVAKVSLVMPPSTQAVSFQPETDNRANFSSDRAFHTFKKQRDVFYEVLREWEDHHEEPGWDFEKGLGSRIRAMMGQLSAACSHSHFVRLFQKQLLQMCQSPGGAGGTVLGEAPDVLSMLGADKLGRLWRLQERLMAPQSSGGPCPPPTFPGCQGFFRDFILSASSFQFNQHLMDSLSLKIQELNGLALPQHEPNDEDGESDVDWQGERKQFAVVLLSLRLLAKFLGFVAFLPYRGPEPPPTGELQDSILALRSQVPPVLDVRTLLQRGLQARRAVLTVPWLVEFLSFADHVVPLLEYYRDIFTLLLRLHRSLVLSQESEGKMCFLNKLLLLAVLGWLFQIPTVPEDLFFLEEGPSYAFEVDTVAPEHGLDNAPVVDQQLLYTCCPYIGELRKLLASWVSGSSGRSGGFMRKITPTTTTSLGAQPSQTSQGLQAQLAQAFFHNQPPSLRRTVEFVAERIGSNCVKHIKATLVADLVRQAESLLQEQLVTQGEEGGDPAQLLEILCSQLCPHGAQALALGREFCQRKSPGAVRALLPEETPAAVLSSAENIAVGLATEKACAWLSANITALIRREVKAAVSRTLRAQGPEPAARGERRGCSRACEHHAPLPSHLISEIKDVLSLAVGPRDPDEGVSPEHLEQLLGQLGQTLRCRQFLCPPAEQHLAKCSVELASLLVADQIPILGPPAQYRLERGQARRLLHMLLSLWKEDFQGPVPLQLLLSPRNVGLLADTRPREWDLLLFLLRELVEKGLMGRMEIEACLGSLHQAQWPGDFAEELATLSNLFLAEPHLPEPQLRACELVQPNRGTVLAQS
UniProt P0C221: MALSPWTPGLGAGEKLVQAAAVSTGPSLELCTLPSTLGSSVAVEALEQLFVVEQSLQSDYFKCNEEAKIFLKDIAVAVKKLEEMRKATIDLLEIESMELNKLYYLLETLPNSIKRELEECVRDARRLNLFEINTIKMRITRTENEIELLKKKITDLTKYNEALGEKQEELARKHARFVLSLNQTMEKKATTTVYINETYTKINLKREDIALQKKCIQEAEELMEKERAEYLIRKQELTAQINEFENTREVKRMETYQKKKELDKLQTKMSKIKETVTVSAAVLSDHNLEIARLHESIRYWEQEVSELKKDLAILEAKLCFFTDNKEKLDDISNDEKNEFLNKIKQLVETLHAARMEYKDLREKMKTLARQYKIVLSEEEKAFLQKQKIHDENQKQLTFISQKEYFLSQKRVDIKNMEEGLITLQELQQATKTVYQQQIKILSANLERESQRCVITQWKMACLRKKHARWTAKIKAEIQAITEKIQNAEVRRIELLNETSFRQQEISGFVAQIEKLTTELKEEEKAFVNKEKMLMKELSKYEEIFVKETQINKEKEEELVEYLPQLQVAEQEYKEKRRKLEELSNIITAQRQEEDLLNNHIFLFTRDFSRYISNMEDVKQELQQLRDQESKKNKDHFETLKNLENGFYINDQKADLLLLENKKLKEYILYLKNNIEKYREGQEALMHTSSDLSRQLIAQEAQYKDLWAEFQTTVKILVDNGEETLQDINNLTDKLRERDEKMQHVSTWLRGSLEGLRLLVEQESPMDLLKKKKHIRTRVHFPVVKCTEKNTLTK
UniProt P42575: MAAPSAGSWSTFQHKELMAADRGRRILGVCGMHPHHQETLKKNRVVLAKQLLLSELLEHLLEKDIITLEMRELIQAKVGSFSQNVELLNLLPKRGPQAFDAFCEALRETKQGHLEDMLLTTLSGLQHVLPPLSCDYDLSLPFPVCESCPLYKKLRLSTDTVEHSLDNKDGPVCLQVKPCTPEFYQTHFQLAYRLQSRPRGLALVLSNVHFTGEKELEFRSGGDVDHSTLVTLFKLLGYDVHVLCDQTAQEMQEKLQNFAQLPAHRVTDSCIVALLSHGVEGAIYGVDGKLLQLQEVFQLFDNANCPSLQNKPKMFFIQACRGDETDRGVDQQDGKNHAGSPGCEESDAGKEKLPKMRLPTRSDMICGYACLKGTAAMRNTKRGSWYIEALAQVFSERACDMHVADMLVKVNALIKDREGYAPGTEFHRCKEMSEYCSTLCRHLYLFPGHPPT
UniProt P60033: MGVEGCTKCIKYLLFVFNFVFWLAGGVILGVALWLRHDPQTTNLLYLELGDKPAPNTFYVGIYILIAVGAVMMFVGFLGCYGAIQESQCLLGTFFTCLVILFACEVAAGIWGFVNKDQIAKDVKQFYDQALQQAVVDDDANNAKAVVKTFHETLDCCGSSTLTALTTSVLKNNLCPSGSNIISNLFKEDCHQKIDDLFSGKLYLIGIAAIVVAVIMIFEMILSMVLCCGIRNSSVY

What was measured:
Assay in all cases: log2 fold change, soluble protein after heating vs DMSO (PISA); higher = thermal stabilisation; K562 cells, 10 uM, 30 min; active = over 0.2 and 3.5 SD of the protein, either way, in both replicates (recomputed)
IRAK-1-4 Inhibitor I = compound: C1COCCN1CCN2C3=CC=CC=C3N=C2NC(=O)C4=CC(=CC=C4)[N+](=O)[O-] [IRAK-1-4 Inhibitor I]
Outline: (§1)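 K562 cells (2×10^6 cells/mL) were treated with 10 μM compound for 30 min, and aliquots were heated for 3 min over 48°C-58°C. Pooled aliquots were extracted in PBS with 0.5% NP-40 at 4°C, and the supernatant after 21,000xg for 90 min was measured by TMTpro 16plex LC-MS/MS with channel sums equalised. Reported thermal stability, relative to control samples and from duplicates, is a log2 fold change.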

ibrutinib = compound: C=CC(=O)N1CCC[C@@H](n2nc(-c3ccc(Oc4ccccc4)cc3)c3c(N)ncnc32)C1 [ibrutinib]
Outline: as §1

[1] = compound: CC(=O)c1cnc2ccc(-c3cc(Cl)c(O)c(Cl)c3)nc2c1N[C@H]1CC[C@H](CN(C)C)CC1
Outline: as §1

ralimetinib = compound: CC(C)(C)Cn1c(N)nc2ccc(-c3[nH]c(C(C)(C)C)nc3-c3ccc(F)cc3)nc21 [ralimetinib]
Outline: as §1

[2] = compound: CC(C)(O)CC(=O)NCCn1ccc2ncnc(Nc3ccc(Oc4cccc(C(F)(F)F)c4)c(Cl)c3)c21
Outline: as §1

[3] = compound: CC(C)C1=C2N=C(C=C(N2N=C1)NCC3=CC=CC=C3)NCCCCCCN
Outline: as §1

[4] = compound: CC(C)C[C@@H](C=O)NC(=O)[C@H](CC(C)C)NC(=O)[C@H](CC(C)C)NC(=O)OCc1ccccc1
Outline: as §1

pinometostat = compound: CC(C)N(C[C@H]1O[C@@H](n2cnc3c(N)ncnc32)[C@H](O)[C@@H]1O)[C@H]1C[C@@H](CCc2nc3cc(C(C)(C)C)ccc3[nH]2)C1 [pinometostat]
Outline: as §1

[5] = compound: CC1=C(C2=C(C=C1)C(=O)C3=CC=CC=C3N2CCCN)C
Outline: as §1

[6] = compound: CC1=C(C=C(C=C1)NC(=O)C2=CC(=CC=C2)C(C)(C)C#N)NC3=CC4=C(C=C3)N=CN(C4=O)C
Outline: as §1

[7] = compound: CC1=C(C=C(C=C1)NC(=O)C2=CC(=CC=C2)N(C)C)NC(=O)C3=CC=C(C=C3)O
Outline: as §1

[8] = compound: CC1=CC=C(C=C1)SC2=C3C=C(SC3=CN=C2)C(=O)N
Outline: as §1

[9] = compound: CC1=NC(=CC=C1)C2=C(N=C(N2)C(C)(C)C)C3=CC4=NC=CN=C4C=C3
Outline: as §1

Nexturastat A = compound: CCCCN(Cc1ccc(C(=O)NO)cc1)C(=O)Nc1ccccc1 [Nexturastat A]
Outline: as §1

vemurafenib = compound: CCCS(=O)(=O)Nc1ccc(F)c(C(=O)c2c[nH]c3ncc(-c4ccc(Cl)cc4)cc23)c1F [vemurafenib]
Outline: as §1

[10] = compound: CCCS(=O)(=O)Nc1ccc(F)c(C(=O)c2c[nH]c3ncc(Cl)cc23)c1F
Outline: as §1

[11] = compound: CCCc1cc(C)[nH]c(=O)c1CNC(=O)c1cc(-c2ccnc(N3CCN(C)CC3)c2)cc2c1cnn2C(C)C
Outline: as §1

givinostat = compound: CCN(CC)Cc1ccc2cc(COC(=O)Nc3ccc(C(=O)NO)cc3)ccc2c1 [givinostat]
Outline: as §1

barasertib = compound: CCN(CCCOc1ccc2c(Nc3cc(CC(=O)Nc4cccc(F)c4)[nH]n3)ncnc2c1)CCOP(=O)(O)O [barasertib]
Outline: as §1

[12] = compound: CC1=C(C(CC(=O)N1)C2=CC=C(C=C2)C(F)(F)F)C(=O)NC3=C(C=C4C(=C3)C=NN4)F
Outline: as §1

Target	log2 fold change (IRAK-1-4 Inhibitor I)	log2 fold change (ibrutinib)	log2 fold change [1]	log2 fold change (ralimetinib)	log2 fold change [2]	log2 fold change [3]	log2 fold change [4]	log2 fold change (pinometostat)	log2 fold change [5]	log2 fold change [6]	log2 fold change [7]	log2 fold change [8]	log2 fold change [9]	log2 fold change (Nexturastat A)	log2 fold change (vemurafenib)	log2 fold change [10]	log2 fold change [11]	log2 fold change (givinostat)	log2 fold change (barasertib)	log2 fold change [12]
CCDC59 (UniProt Q9P031)	inactive: -0.083	inactive: -0.051	inactive: 0.224	inactive: 0.28	inactive: -0.073	inactive: 0.093	inactive: 0.197	inactive: 0.233	inactive: -0.468	inactive: -0.067	inactive: -0.017	inactive: -0.144	inactive: -0.213	active: 0.549	inactive: -0.037	inactive: 0.008	inactive: 0.113	inactive: 0.086	inactive: -0.013	–
CCAR1 (UniProt Q8IX12)	inactive: 0.002	inactive: 0.003	inactive: -0.039	inactive: -0.012	inactive: -0.103	inactive: -0.168	inactive: 0.006	inactive: -0.009	inactive: 0.209	inactive: 0.03	inactive: -0.046	inactive: -0.001	inactive: -0.017	inactive: 0.071	inactive: 0.007	inactive: 0.006	inactive: -0.045	inactive: 0.027	inactive: -0.04	–
CCNK isoform 4 (UniProt O75909)	inactive: -0.143	inactive: 0.02	inactive: -0.058	inactive: 0.031	inactive: -0.007	inactive: -0.008	inactive: 0.045	inactive: 0.15	inactive: -0.047	inactive: 0	inactive: 0.032	inactive: -0.032	inactive: -0.011	inactive: 0.024	inactive: -0.088	inactive: 0	inactive: 0.038	inactive: 0.014	inactive: -0.063	–
CD2BP2 (UniProt O95400)	inactive: -0.099	inactive: 0.033	–	–	inactive: 0.149	inactive: 0.151	–	inactive: 0.008	inactive: -0.229	–	–	inactive: -0.018	inactive: -0.022	inactive: 0.182	inactive: -0.028	inactive: -0.216	–	inactive: 0.056	inactive: -0.021	–
CD99L2 isoform 5 (UniProt Q8TCZ2)	inactive: 0.028	inactive: -0.04	–	–	inactive: -0.015	inactive: 0.216	–	inactive: -0.019	inactive: -0.335	–	–	inactive: -0.043	inactive: -0.139	inactive: -0.137	inactive: -0.046	inactive: -0.227	inactive: 0.027	inactive: 0.018	inactive: 0.002	inactive: -0.045
CASP10 isoform 4 (UniProt Q92851)	inactive: -0.132	inactive: -0.083	inactive: 0.083	inactive: 0.095	inactive: -0.13	–	inactive: -0.015	inactive: 0.047	inactive: 0.262	inactive: 0.015	inactive: 0.026	inactive: 0.085	inactive: 0	inactive: 0.125	inactive: -0.015	inactive: 0.014	inactive: 0.034	–	inactive: 0.121	–
CDAN1 (UniProt Q8IWY9)	inactive: 0.057	inactive: -0.001	inactive: -0.044	inactive: -0.036	inactive: -0.168	inactive: -0.051	inactive: -0.006	inactive: 0.026	active: -0.398	inactive: 0.039	inactive: 0.046	inactive: -0.071	inactive: -0.022	inactive: -0.192	inactive: -0.067	inactive: 0.077	inactive: 0.022	inactive: 0.023	inactive: 0.002	–
CCDC175 (UniProt P0C221)	inactive: -0.044	inactive: -0.04	inactive: -0.045	inactive: 0.06	–	inactive: 0.051	inactive: 0.001	inactive: 0.035	–	–	inactive: 0.022	inactive: 0.004	inactive: -0.087	–	inactive: -0.018	inactive: 0.034	inactive: -0.003	inactive: -0.006	inactive: 0.139	inactive: -0.006
CASP2 (UniProt P42575)	inactive: 0.017	inactive: 0.027	inactive: 0	inactive: -0.074	inactive: -0.073	inactive: -0.082	inactive: 0.072	inactive: -0.013	inactive: 0.091	inactive: 0.025	inactive: 0.001	inactive: 0.215	inactive: 0.056	inactive: 0.004	inactive: 0.026	inactive: 0.193	inactive: 0.086	inactive: 0.039	inactive: 0.026	–
CD81 (UniProt P60033)	inactive: 0.027	inactive: 0.007	inactive: -0.026	inactive: -0.045	inactive: -0.018	inactive: 0.33	inactive: -0.122	inactive: -0.05	inactive: -0.01	inactive: 0.039	inactive: 0.112	inactive: 0.069	inactive: 0.054	inactive: -0.027	inactive: 0.156	inactive: -0.08	inactive: -0.06	inactive: 0.016	inactive: -0.008	–
